Measured values: patent US9758494B2, “N-(oxazol-2-yl)-aryl-carboxylic acid amides and use thereof as herbicides” (BAYER CROPSCIENCE AG, priority 2012, dated 2017)
Some results were stated once for a whole list of compounds, not compound by compound.

Columns and labels:
Type in all cases: in vivo
Veronica persica = assay: Pre-emergence herbicidal action; settings: application rate of 320 g/ha, 3 weeks
Amaranthus retroflexus = assay: Post-emergence herbicidal action; settings: application rate of 80 g/ha, about 3 weeks
Abutilon theophrasti = assay: Post-emergence herbicidal action; settings: application rate of 80 g/ha, about 3 weeks

Cc1c(C(=O)Nc2ncco2)ccc(S(C)(=O)=O)c1S(C)(=O)=O [1-163] was tested, and the “activity against Veronica persica” value (Veronica persica) was “at least 80%”, the “activity against Amaranthus retroflexus” value (Amaranthus retroflexus) was “at least 80%” and the “activity against Abutilon theophrasti” value (Abutilon theophrasti) was “at least 80%”.

In the case of CSc1c(C(F)(F)F)ccc(C(=O)Nc2ncco2)c1C [1-171], the “activity against Veronica persica” value (Veronica persica) is reported as “at least 80%”, the “activity against Amaranthus retroflexus” value (Amaranthus retroflexus) is reported as “at least 80%” and the “activity against Abutilon theophrasti” value (Abutilon theophrasti) is reported as “at least 80%”.

With C[S+]([O-])c1c(S(C)(=O)=O)ccc(C(=O)Nc2ncco2)c1Cl (centres unmarked) [1-284] the “activity against Veronica persica” value (Veronica persica) was “at least 80%”, the “activity against Amaranthus retroflexus” value (Amaranthus retroflexus) was “at least 80%” and the “activity against Abutilon theophrasti” value (Abutilon theophrasti) was “at least 80%”.

With C[S+]([O-])c1c(C(F)(F)F)ccc(C(=O)Nc2ncco2)c1Cl (centres unmarked) [1-294] the “activity against Veronica persica” value (Veronica persica) was “at least 80%”, the “activity against Amaranthus retroflexus” value (Amaranthus retroflexus) was “at least 80%” and the “activity against Abutilon theophrasti” value (Abutilon theophrasti) was “at least 80%”.

CCS(=O)(=O)c1ccc(C(=O)Nc2nc(C)c(C)o2)c(Cl)c1C1=NOC(CC#N)C1 (centres unmarked) [11-343] was tested, and the “activity against Veronica persica” value (Veronica persica) was “at least 80%”.

With O=C(Nc1ncco1)c1ccc(C(F)(F)F)nc1Cl [No. 10-1, 2-chloro-N-(1,3-oxazol-2-yl)-6-(trifluoromethyl)nicotinamide] the “activity against Veronica persica” value (Veronica persica) was “at least 80%”.
